Data: PubChem BioAssay AID192 (DTP/NCI, 2004)
The list does not hold the whole screen: it covers a few groups of compounds. Not every dose and run of a compound is shown. T/C is the treated group as % of the vehicle group. Some doses have a count of surviving animals in place of a T/C: the source files T/C as zero there, which appears to mark a toxic dose or a test without result, not a measured value. Some survivor counts are full or nearly so, which does not show that the dose was tolerated: the source hardly ever lists a survival T/C far under the control, and the zero likely stands for such cases as well. Survivors were counted at the toxicity check, usually on the fifth day, unless a day is given; later deaths do not show. Schedules are NCI's codes, read here as Q, the interval in days (D) or hours (H), X, the number of doses. For survival time, this PubChem deposit counts one and a half times the control or more as active, and values a quarter to a half above the control carry no call in these data; other NCI protocols may use other cut-offs. Some entries hold several experiments; their values stand side by side, smallest first. Some T/C values are marked as having no survivor count here; that says nothing about deaths at the dose. Some T/C values carry the count of animals alive at the toxicity check (mostly the fifth day); where neither a count nor a note follows, no animal had died by that day.

System: BDF1 mice, B16 melanoma ip, median survival T/C
Test: NCI In Vivo Anticancer Drug Screen. Data for tumor model B16 Melanoma (intraperitoneal) in B6D2F1 (BDF1) mice
Conditions: T/C endpoint: median survival time, higher T/C = longer survival
Procedure: The antitumor activity of compounds was measured in mice bearing transplantable tumors. Survival or tumor size were measured and the results are expressed as the measurement made in the treated group (T) divided by the measurement made in the vehicle treated control group (C). The tumor model used in this assay is B16 Melanoma (intraperitoneal) in B6D2F1 (BDF1) mice

[1] = dose: 12.5 mg/kg/injection, schedule: Q04DX003 (ip), vehicle: saline with Tween-80
[2] = dose: 25.0 mg/kg/injection, schedule: Q01DX009 (ip), vehicle: saline with Tween-80
[3] = dose: 25.0 mg/kg/injection, schedule: Q04DX003 (ip), vehicle: saline with Tween-80
[4] = dose: 50.0 mg/kg/injection, schedule: Q01DX009 (ip), vehicle: saline with Tween-80
[5] = dose: 50.0 mg/kg/injection, schedule: Q04DX003 (ip), vehicle: saline with Tween-80
[6] = dose: 100.0 mg/kg/injection, schedule: Q04DX003 (ip), vehicle: saline with Tween-80
[7] = dose: 200.0 mg/kg/injection, schedule: Q04DX003 (ip), vehicle: saline with Tween-80
[8] = dose: 400.0 mg/kg/injection, schedule: Q04DX003 (ip), vehicle: saline with Tween-80
[9] = dose: 12.5 mg/kg/injection, schedule: Q01DX009 (ip), vehicle: saline with Tween-80
[10] = dose: 6.25 mg/kg/injection, schedule: Q01DX009 (ip), vehicle: Klucel (hydroxypropylcellulose) (HPC)
[11] = dose: 12.5 mg/kg/injection, schedule: Q01DX009 (ip), vehicle: Klucel (hydroxypropylcellulose) (HPC)
[12] = dose: 25.0 mg/kg/injection, schedule: Q01DX009 (ip), vehicle: Klucel (hydroxypropylcellulose) (HPC)
[13] = dose: 50.0 mg/kg/injection, schedule: Q01DX009 (ip), vehicle: Klucel (hydroxypropylcellulose) (HPC)

Which T/C [1] does the source give for `O=C1c2cc([N+](=O)[O-])cc([N+](=O)[O-])c2-c2c1cc([N+](=O)[O-])cc2[N+](=O)[O-]` here?
Its T/C is 97 % of control [survivor count not shown].

What about the T/C [2] of the same compound?
The T/C was 97 % of control [survivor count not shown].

And the T/C [3]?
Its T/C is 102 % of control [survivor count not shown].

What about the T/C [4] of the same compound?
Its T/C is 114 % of control [survivor count not shown].

And the T/C [5]?
Its T/C is 97 % of control [survivor count not shown].

Which results are given for `CCCCOP(OCCCC)OCCCC`?
T/C [6]: 93 % of control; T/C [7]: 86 % of control; survivor count [8]: 9 of 10

Which results are given for `CC1CN1P(=O)(Nc1ccccn1)N1CC1C` (stereo not drawn)?
T/C [9]: 97 % of control; T/C [2]: 105 % of control [9 of 10 alive]; T/C [3]: 98 % of control; T/C [4]: 100 % of control; T/C [5]: 138 % of control; survivor count (dose: 100.0 mg/kg/injection, schedule: Q01DX009 (ip), vehicle: saline with Tween-80): 10 of 10; T/C [6]: 95 and 119 % of control; survivor count [7]: 9 of 10; survivor count [8]: 0 of 10

For `ClC1CSC1`, which T/C (dose: 25.0 mg/kg/injection, schedule: Q01DX009 (ip), vehicle: suspension in saline) is on record?
The T/C was 110 % of control.

What about the T/C (dose: 50.0 mg/kg/injection, schedule: Q01DX009 (ip), vehicle: suspension in saline) of the same compound?
Its T/C is 117 % of control.

What about the T/C (dose: 100.0 mg/kg/injection, schedule: Q01DX009 (ip), vehicle: suspension in saline) of the same compound?
Its T/C is 110 % of control.

And the T/C (dose: 200.0 mg/kg/injection, schedule: Q01DX009 (ip), vehicle: suspension in saline)?
The T/C was 132 % of control.

With `CCCCC(CC)CO[P+](=O)OCC(CC)CCCC` (stereo not drawn) as the compound, how does the T/C [9] read?
Its T/C is 104 % of control.

And the T/C [1]?
The T/C was 97 % of control.

And the T/C [2]?
Its T/C is 88 % of control.

What about the T/C [3] of the same compound?
Its T/C is 96 % of control.

What about the T/C [4] of the same compound?
The T/C was 93 % of control.

And the T/C [5]?
The T/C was 101 % of control.

For `CC(=O)N(CCCl)CCCl`, which T/C (dose: 6.25 mg/kg/injection, schedule: Q01DX009 (ip), vehicle: saline) is on record?
The T/C was 102 % of control.

What about the T/C (dose: 12.5 mg/kg/injection, schedule: Q01DX009 (ip), vehicle: saline) of the same compound?
Its T/C is 100 % of control.

What about the T/C (dose: 25.0 mg/kg/injection, schedule: Q01DX009 (ip), vehicle: saline) of the same compound?
The T/C was 94 % of control.

What about the T/C (dose: 50.0 mg/kg/injection, schedule: Q01DX009 (ip), vehicle: saline) of the same compound?
The T/C was 100 % of control.

And the T/C (dose: 100.0 mg/kg/injection, schedule: Q01DX009 (ip), vehicle: saline)?
The T/C was 117 % of control.

How did the T/C [10] turn out when `CCCCc1ccc(N(CCCl)CCCl)cc1` was run?
Its T/C is 93 % of control.

And the T/C [11]?
The T/C was 98 % of control.

And the T/C [12]?
Its T/C is 101 % of control [7 of 8 alive].

And the T/C [13]?
Its T/C is 102 % of control [7 of 8 alive].

What about the T/C (dose: 100.0 mg/kg/injection, schedule: Q01DX009 (ip), vehicle: Klucel (hydroxypropylcellulose) (HPC)) of the same compound?
Its T/C is 125 % of control.

What about the survivor count (dose: 200.0 mg/kg/injection, schedule: Q01DX009 (ip), vehicle: Klucel (hydroxypropylcellulose) (HPC)) of the same compound?
The survivor count was 7 of 8.

`CCN(CC)[P+](c1ccc(OC)cc1OC)(N(CC)CC)N(CC)CC.F[P-](F)(F)(F)(F)F` was tested. Which T/C (dose: 3.12 mg/kg/injection, schedule: Q01DX009 (ip), vehicle: Klucel (hydroxypropylcellulose) (HPC)) did it give?
The T/C was 109 % of control.

And the T/C [10]?
The T/C was 113 % of control.

And the T/C [11]?
Its T/C is 105 % of control.

What about the survivor count [12] of the same compound?
The survivor count was 9 of 10.

What about the survivor count [13] of the same compound?
The survivor count was 5 of 10.
